# Data published in patent publication US20250000979A1, “TRIPLET-TRIPLET ENERGY TRANSFER WITH LIGHT EXCITATION AT LONG WAVELENGTHS AND METHODS THEREOF” (priority 2023, published 2025).
# Experiments:
# [1] = Photolysis of BODIPY prodrugs in solution, analysed by HPLC; type: physicochemical; details: 690 nm, 100 mW/cm^2, 5 min, 0.1 equiv. Os(bptpy)2^2+, N2-saturated solution
# Experimental: BODIPY photocage was conjugated with the free drug molecules to form photoactivable prodrugs with photolabile linkages, including ester and carbamate. The light illumination was performed with a NIR lamp, of which the parameters were 100 mW/cm^2, 690 nm for 5 min, in a N2-saturated solution containing 0.1 equiv. of Os(bptpy)2^2+ and 1 equiv. of prodrugs. […] In addition, the photocage was conjugated with drug molecules with amine groups to produce prodrugs with photolabile carbamate bonds.
# The photolysis efficiency of BODIPY prodrugs were compared in different conditions, including different excitation wavelengths (690 nm or 530 nm), different ratios of Os(bptpy)2^2+, and different oxygen contents. […] The solvent was 88% methanol mixed by 10% dichloromethane and 2% acetone. For the N2-saturated groups, after dissolving the molecules, the solution was degassed with a vacuum pump for 10 min followed by gentle N2 blowing. After light irradiation, the resulted mixtures were refilled to 100 μL with methanol to avoid the error caused by solvent evaporation. The resulted solution was loaded onto the sampler and analyzed by high-performance liquid chromatography. An elution method was used to separate free drug, BODIPY photocage and prodrug on the C18 column.
# [2] = Photoreaction quantum yields and cross sections (HPLC, Reinecke's salt actinometry); type: physicochemical; details: λex 690 nm, 0.1 eq Os, N2
structure (smiles),measurement,setting,value
"COc1ccc2cc([C@H](C)C(=O)OCC3=C4C(C)=C(I)C(C)=[N+]4[B-](C)(C)n4c(C)c(I)c(C)c43)ccc2c1 [BODIPY-NPX, BODIPY-naproxen]",photolytic yield (yield of free drug),[1],84.32±5.79%
same,Quantum yield of drug release Φr,[2],0.73 ± 0.05%
same,Quantum yield of prodrug photolysis Φp,[2],0.85 ± 0.02%
same,Cross section Φpε(λex),[2]; ε of Os(bptpy)2·2PF6 at 688 nm,227.15 ± 4.42 M⁻¹ cm⁻¹
same,Cross section Φrε(λex),[2]; ε of Os(bptpy)2·2PF6 at 688 nm,194.19 ± 13.33 M⁻¹ cm⁻¹
